Results: PMC8810869
No constants are given. Whether binding was seen depends on the method and setting. In cells and extracts the contact can be indirect. Some binding calls cover weakened binding; strength is not graded here.

Sequences of proteins named here, by UniProt entry; tags and fusion partners are left off. Residues count along the entry.
UniProt P11021, residues 19-654: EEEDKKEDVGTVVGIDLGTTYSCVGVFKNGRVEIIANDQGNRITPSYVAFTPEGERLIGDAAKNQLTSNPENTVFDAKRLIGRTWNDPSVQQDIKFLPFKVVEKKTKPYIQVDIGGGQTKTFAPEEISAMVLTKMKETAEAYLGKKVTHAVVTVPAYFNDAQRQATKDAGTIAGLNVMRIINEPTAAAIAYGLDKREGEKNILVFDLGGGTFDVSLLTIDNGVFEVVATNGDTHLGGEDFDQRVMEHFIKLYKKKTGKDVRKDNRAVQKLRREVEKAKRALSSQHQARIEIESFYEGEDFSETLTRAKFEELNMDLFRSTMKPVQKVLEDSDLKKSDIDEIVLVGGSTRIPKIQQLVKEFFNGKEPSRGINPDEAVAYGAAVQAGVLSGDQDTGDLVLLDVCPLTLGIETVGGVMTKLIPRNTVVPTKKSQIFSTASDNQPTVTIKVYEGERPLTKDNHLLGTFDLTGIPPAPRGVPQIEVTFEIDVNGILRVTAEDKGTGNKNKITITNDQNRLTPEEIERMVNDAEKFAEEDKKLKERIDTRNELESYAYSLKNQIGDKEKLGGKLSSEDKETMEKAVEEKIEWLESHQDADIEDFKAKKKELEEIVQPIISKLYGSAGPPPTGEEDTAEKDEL

Biological target: GRP78 (human (endogenous in SW480 and HCT116)) (UniProt P11021)
Assay: co-IP; endogenous proteins in SW480 and HCT116 cells; the co-immunoprecipitation protocol is not described

binding: binds
B1: Transketolase (protein, UniProt P29401 1-623)
chain: MESYHKPDQQKLQALKDTANRLRISSIQATTAAGSGHPTSCCSAAEIMAVLFFHTMRYKSQDPRNPHNDRFVLSKGHAAPILYAVWAEAGFLAEAELLNLRKISSDLDGHPVPKQAFTDVATGSLGQGLGAACGMAYTGKYFDKASYRVYCLLGDGELSEGSVWEAMAFASIYKLDNLVAILDINRLGQSDPAPLQHQMDIYQKRCEAFGWHAIIVDGHSVEELCKAFGQAKHQPTAIIAKTFKGRGITGVEDKESWHGKPLPKNMAEQIIQEIYSQIQSKKKILATPPQEDAPSVDIANIRMPSLPSYKVGDKIATRKAYGQALAKLGHASDRIIALDGDTKNSTFSEIFKKEHPDRFIECYIAEQNMVSIAVGCATRNRTVPFCSTFAAFFTRAFDQIRMAAISESNINLCGSHCGVSIGEDGPSQMALEDLAMFRSVPTSTVFYPSDGVATEKAVELAANTKGICFIRTSRPENAIIYNNNEDFQVGQAKVVLKSKDDQVTVIGAGVTLHEALAAAELLKKEKINIRVLDPFTIKPLDRKLILDSARATKGRILTVEDHYYEGGIGEAVSSAVVGEPGITVTHLAVNRVPRSGKPAELLKMFGIDRDAIAQAVRGLITKA
